The test is described as follows: qHTS Assay for Lipid Storage Modulators in Drosophila S3 Cells.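 For cell number change: cells counted by Cell Tracker Red CMTPX staining in the red channel.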 The note with it: BODIPY lipid droplet fluorescence, 18-24 h; for cell number change: measured here: cell count max response, cells fed with added oleic acid. The gist of the method:
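Laser-scanning cytometry quantifies lipid droplet accumulation (500–530 nm total intensity; droplet/cell object ratio) in oleic acid-fed (400 uM added) Drosophila S3 cells treated with a concentration series. 20 uM Triacsin C defined 100% inhibition.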
(Quantitative high-throughput screening tests each substance at several concentrations.)

Where [1] appears, read: measured here: cell number channel AC50, cells fed with added oleic acid.
The mark [2] stands for this setting: measured here: lipid fluorescence (Fed channel) AC50, cells fed with added oleic acid.

Molecules are shown by their SMILES. Some of the results follow. These are further read-outs of the screen, such as a control signal, another cell line or another target. No call is given for them. The list favours compounds with an active or inconclusive main result. Potencies come from curve fits of mixed quality, noted in brackets.

What is called AC50 is the concentration giving half of the maximal activity seen. Lower therefore signals greater potency.

As for `CC(=O)Nc1c(C(=O)O)[nH]c2ccccc12`, the cell number change was -45.3%. For the same compound, under setting [1], the concentration at half-maximal activity (AC50) is 0.731 µM [falling, full curve, poor fit]. Also, the half-maximal activity concentration (AC50) under setting [2] is 13 µM [falling, partial curve]. With `C/C(CC(=O)NCc1ccco1)=N\NC(=O)CC#N`, the cell number change was -14%. Moreover, the AC50 under setting [2] is 0.0731 µM [falling, full curve, poor fit]. Consider `C=CCn1c(=O)c2ccccc2n2c(SCC(=O)Nc3cc(C)on3)nnc12`, for which the cell number change is 212%. For the same compound, under setting [1], the AC50 was 0.461 µM [rising, full curve, poor fit]. Further, the AC50 under setting [2] was 0.517 µM [rising, full curve]. Regarding `N/C(=N\OC(=O)c1ccccc1F)c1cccc([N+](=O)[O-])c1`, the cell number change was found to be 1.72%.

On to `CC(C)n1c(SC2CCOC2=O)nc2ccccc21` (stereo unspecified), for which the cell number change was 7.82%. The AC50 under setting [2] is 23.1 µM [falling, partial curve]. Regarding `CCOCCn1c(=O)c2c(nc3n2CCN3c2ccc(C)c(C)c2)n(C)c1=O`, the cell number change came out at 20.6%. In addition, under setting [2], the concentration at half-maximal activity (AC50) was 32.6 µM [rising, single point]. Consider `Cc1cc(=O)oc2c3c(cc(OCC(=O)N[C@@H](CC(C)C)C(=O)O)c12)OC(C)(C)CC3`, for which the cell number change is 27.9%. For the same compound, the AC50 under setting [1] was 0.0164 µM [rising, full curve, poor fit]. Besides, under setting [2], the AC50 was 4.11 µM [rising, full curve]. Take `COc1ccc(C2SCC(=O)N2c2ccc(OC)cc2)cc1` (stereo unspecified): the cell number change worked out at 13%. Moreover, the half-maximal activity concentration (AC50) under setting [2] is 0.291 µM [rising, full curve, poor fit]. On to `CCOc1cc(C2C(C#N)=C(N)Oc3n[nH]c(-c4ccccc4)c32)ccc1O` (stereo unspecified), for which the cell number change was -16.9%. The AC50 under setting [2] was 9.2 µM [falling, partial curve].

For the compound `C=CCn1c(=NC(=O)c2ccco2)sc2cc(C(=O)OCC)ccc21`, the cell number change worked out at 3.15%. The AC50 under setting [2] is 25.9 µM [rising, partial curve, poor fit]. With `COc1ccccc1Nc1nnc(SCC(=O)NC2CCCC2)s1`, the cell number change was -2.63%. Further, the concentration at half-maximal activity (AC50) under setting [2] was 29.1 µM [falling, single point]. Regarding `O=C(CCc1nc2ccccc2s1)OCC(=O)c1ccc[nH]1`, the cell number change came to 4.22%. Moreover, under setting [1], the AC50 was 0.058 µM [falling, full curve]. In addition, the concentration at half-maximal activity (AC50) under setting [2] was 0.164 µM [falling, full curve]. For the compound `COc1ccc(-c2c(-c3ccc(O)cc3O)n[nH]c2C(F)(F)F)cc1`, the cell number change was -54.7%. For the same compound, the half-maximal activity concentration (AC50) under setting [1] is 32.6 µM [falling, single point]. Further, under setting [2], the AC50 is 25.9 µM [falling, partial curve].

As for `CCOC(=O)[C@H]1[C@H]2COc3ccc(Cl)cc3[C@@H]2N2C(=O)CN(Cc3ccc(C)cc3)C(=O)[C@@]12C`, the cell number change is 12.4%. The half-maximal activity concentration (AC50) under setting [2] was 1.64 µM [rising, partial curve]. `CC(=O)Nc1ccc(-n2c(C)nc(=O)c(-c3ccccc3)c2C)cc1`: the AC50 under setting [2] was 29.1 µM [falling, single point]. Turning to `Cc1ccc(S(=O)(=O)N2CCC(NC(=O)c3cccc(C)c3)CC2)cc1`, the cell number change came to 24.2%. Also, under setting [2], the AC50 is 0.411 µM [falling, single point]. In the case of `CCOC(=O)c1oc2ccccc2c1COC(=O)C(C)NC(=O)c1ccco1` (stereo unspecified), the cell number change was -25.9%. Besides, the AC50 under setting [2] is 23.1 µM [falling, single point]. Consider `Cc1ccc(NC(=O)CSCc2cc(=O)n3ccsc3n2)c(C)c1`, for which the cell number change was 40.2%. The AC50 under setting [1] is 8.2 µM [rising, partial curve]. In addition, the concentration at half-maximal activity (AC50) under setting [2] is 29.1 µM [rising, partial curve]. `O=C(c1ccc(Cl)c(Cl)c1)c1cc(-c2ccccn2)c(N2CCOCC2)s1`: the cell number change was determined as 10.9%. The AC50 under setting [2] was 16.4 µM [falling, single point]. Regarding `Cc1c(Cl)c([N+](=O)[O-])nn1CCCC(=O)Nc1c(Cl)cccc1Cl`, the cell number change worked out at 5.3%. Moreover, the half-maximal activity concentration (AC50) under setting [2] is 2.31 µM [rising, partial curve]. In the case of `CCCCCCc1c(C)c2ccc(OCC(=O)N3CCC[C@H]3C(=O)O)c(C)c2oc1=O`, the cell number change is 2.7%. For `CCC(=O)c1cn(CC(=O)NCc2cccnc2)c2ccccc12`, the cell number change was determined as 34.9%. Moreover, under setting [1], the half-maximal activity concentration (AC50) was 29.1 µM [rising, single point]. As for `CCOc1ccccc1CN1CCNC(=O)C1CC(=O)N(C)Cc1cnccn1` (stereo unspecified), the cell number change stood at 29.2%. Under setting [2], the AC50 is 29.1 µM [rising, single point]. As to `CC(OC(=O)/C=C/c1ccccc1)C(=O)Nc1ccc(C(N)=O)cc1` (stereo unspecified), the cell number change turned out to be 2.2%. As to `Cc1ccc(S(=O)(=O)N2CCCCC2)cc1NC(=O)COC(=O)c1c(F)cccc1F`, the AC50 under setting [1] was 6.51 µM [falling, single point]. Consider `COc1ccc(C(=O)O)cc1NC(=S)NC(=O)Cc1ccc(Cl)cc1`, for which the cell number change is -5.56%. Further, the half-maximal activity concentration (AC50) under setting [2] is 6.51 µM [falling, single point]. Regarding `CCn1c(SCC(=O)NCc2ccc3c(c2)OCO3)nnc1-c1c[nH]c2ccccc12`, the cell number change was -15.4%. Further, under setting [2], the AC50 was 9.2 µM [falling, partial curve, poor fit].

As for `Cc1ccc(NC(=O)c2ccc(Nc3c([N+](=O)[O-])cc([N+](=O)[O-])cc3[N+](=O)[O-])cc2)cc1`, the cell number change is -64.1%. The AC50 under setting [1] is 29.1 µM [falling, single point]. Under setting [2], the AC50 was 29.1 µM [rising, single point]. With `Cc1cccc(NC(=O)CNC(=O)c2cccc(S(=O)(=O)NCc3cccs3)c2)c1C`, the cell number change stood at 16%. For the same compound, the AC50 under setting [2] is 0.651 µM [rising, full curve, poor fit]. For `CCOC(=O)c1csc(N)n1`, the cell number change is -15.5%. Moreover, the concentration at half-maximal activity (AC50) under setting [2] is 23.1 µM [falling, partial curve, poor fit].

In the case of `Cc1cc(NC(=S)N(Cc2ccc(Cl)cc2)Cc2ccc(C(=O)O)cc2)ccc1Cl`, the cell number change was -1.09%. Take `COc1ccc(N2CCN(CCCn3c(=S)[nH]c4ncccc4c3=O)CC2)cc1`: the cell number change was determined as 2.55%. In addition, under setting [2], the half-maximal activity concentration (AC50) was 32.6 µM [rising, partial curve, poor fit].

As to `O=C(c1ccc(F)cc1)N1CCN(c2ccccn2)CC1`, the cell number change is -1.09%. Further, the concentration at half-maximal activity (AC50) under setting [1] was 1.64 µM [rising, partial curve, poor fit]. Also, the AC50 under setting [2] was 3.66 µM [rising, full curve]. For the compound `CN(C)CCCOC(=O)CCc1ccccc1`, the cell number change is -32%. Besides, the AC50 under setting [1] was 0.184 µM [falling, full curve]. Also, under setting [2], the AC50 was 0.206 µM [falling, full curve].

Regarding `Cc1c(/C=C/C(=O)c2ccc(C(C)C)cc2)cnn1C`, the cell number change is -51.8%. Moreover, under setting [1], the AC50 was 0.651 µM [falling, full curve]. The half-maximal activity concentration (AC50) under setting [2] is 29.1 µM [falling, single point]. As to `COc1cccc(-c2nc3cc(C)ccc3o2)c1`, the cell number change is -40.9%. Besides, the AC50 under setting [1] was 23.1 µM [falling, partial curve, poor fit]. The half-maximal activity concentration (AC50) under setting [2] is 10.3 µM [falling, partial curve].

Consider `CCC(C)c1c(O)nc(SCC(=O)Nc2ccccc2)[nH]c1=O` (stereo unspecified), for which the cell number change worked out at 18.1%. In addition, the AC50 under setting [2] was 0.116 µM [falling, full curve, poor fit].

As to `Cc1ccc(C(=S)NCS(=O)(=O)c2ccc(C)cc2)cc1`, the cell number change was 3.45%. The concentration at half-maximal activity (AC50) under setting [2] is 29.1 µM [rising, single point]. For `CCC(C)NC(=O)CSc1nc2cc(S(=O)(=O)N3CCOCC3)ccc2n1CC` (stereo unspecified), the cell number change came out at 4.84%. The AC50 under setting [1] is 6.51 µM [falling, single point].

In the case of `COc1ccc(C(CNC(=O)c2ccc(C)o2)N2CCOCC2)cc1` (stereo unspecified), the cell number change is -100%. The concentration at half-maximal activity (AC50) under setting [1] was 1.84 µM [falling, partial curve, poor fit].

With `Cc1cc(C)n(-c2ncc(C#N)cn2)n1`, the cell number change is -6.15%. For the same compound, the half-maximal activity concentration (AC50) under setting [1] was 0.92 µM [falling, full curve]. `Cc1ccc(S(=O)(=O)N2CCCC2C(=O)n2nc(C)cc2C)cc1` (stereo unspecified): the cell number change was -12.4%.

Turning to `CCOc1ccc(Oc2ccc(S(=O)(=O)N3CCOCC3)cc2N)cc1`, the cell number change is 9.74%. The concentration at half-maximal activity (AC50) under setting [1] was 0.00517 µM [rising, full curve, poor fit].

Regarding `CCN(CC)c1ccc(NC(=O)c2ccc(Br)o2)cc1`, the cell number change is -8.84%. In the case of `CN(C)S(=O)(=O)c1ccc(Cl)c(NC(=O)COC(=O)[C@@H]2CCCN2C(=O)c2cccs2)c1`, the AC50 is, setting by setting: under setting [1], 0.0731 µM [rising, full curve, poor fit]; under setting [2], 6.51 µM [rising, partial curve, poor fit].

For `O=C(C1CCC(=O)N(C2CC2)C1)N1CCC(Oc2ccccc2F)CC1` (stereo unspecified), the cell number change was -22.3%. The half-maximal activity concentration (AC50) under setting [2] is 29.1 µM [rising, single point]. Turning to `O=c1c2ccccc2[nH]c(=S)n1CCCN1CCN(C2CCCCC2)CC1`, the cell number change amounted to 27%. On to `O=C(CNC(=O)c1ccccc1Cl)Nc1ccncc1`, for which the cell number change worked out at 9.83%. Under setting [2], the concentration at half-maximal activity (AC50) is 0.731 µM [rising, single point]. Regarding `CCCCn1c(N)c(N(CCOC)C(=O)C2CCCN(C(=O)c3ccc(Cl)cc3)C2)c(=O)[nH]c1=O` (stereo unspecified), the cell number change was -19.9%. Still for that read-out and setting: under `CCc1cccc(CC)c1NC(=S)NCCc1ccc(O)c(O)c1` stands -10.3%. `Cc1cc(C)cc(S(=O)(=O)c2cn(C)c3cc(N4CCN(C)CC4)c(F)cc3c2=O)c1`: the cell number change is -23.6%. Further, the AC50 under setting [2] is 29.1 µM [rising, single point].

Consider `Cc1cccc(N2CCN(c3ccc4cc(S(=O)(=O)N5CCCCC5)ccc4n3)CC2C)c1` (stereo unspecified), for which the cell number change is -1.83%. The AC50 under setting [2] is 2.06 µM [rising, partial curve]. With `CCOC(=O)c1ccc(NC2c3ccccc3C(=O)N2c2ccccn2)cc1` (stereo unspecified), the cell number change was 32.8%. For the same compound, the AC50 under setting [1] was 8.2 µM [rising, partial curve].

As for `COc1ccc(C(c2nnnn2CCc2ccccc2)N2CCN(C3CCCC3)CC2)cc1OC` (stereo unspecified), the cell number change was 5.81%. The AC50 under setting [2] is 0.231 µM [falling, full curve, poor fit]. On to `Cc1cccc(C)c1OCc1n[nH]c(=S)n1-c1ccccc1`, for which the AC50 under setting [2] was 4.11 µM [falling, partial curve, poor fit]. As to `COc1ccc(C(=O)Nc2ccc(C)cn2)c(OC)c1`, under setting [1], the concentration at half-maximal activity (AC50) was 4.11 µM [rising, single point]. For the compound `CN(C)S(=O)(=O)N1CCC(C(=O)O)(c2ccccc2)CC1`, the AC50 under setting [1] is 6.51 µM [falling, single point]. Consider `CCCCN(C)C1=CC2=CC(=C(C#N)C#N)CCC2CC1` (stereo unspecified), for which the cell number change is -97.6%. Moreover, the concentration at half-maximal activity (AC50) under setting [1] is 1.3 µM [falling, partial curve]. Besides, under setting [2], the half-maximal activity concentration (AC50) was 0.366 µM [falling, full curve].

For the compound `Cc1c(C(=O)NNC(=O)c2csc(N3CCOCC3)n2)cccc1[N+](=O)[O-]`, the cell number change was 2.72%. The half-maximal activity concentration (AC50) under setting [2] is 14.6 µM [rising, partial curve, poor fit].

Values taken from PubChem BioAssay AID2685 (National Center for Advancing Translational Sciences (NCATS), 2010).
